Patent publication US6403769
No constants are given. Whether binding was seen depends on the method and setting. Some results given as binding are weak or reduced against the parent protein; the word gives no strength.

The chains behind the UniProt entries cited, without tags or fusion partners. Where a name states a change or a piece, a line headed by the entry shows the natural chain unless it says otherwise. Residues count along the entry.
UniProt P03968, residues 16-155: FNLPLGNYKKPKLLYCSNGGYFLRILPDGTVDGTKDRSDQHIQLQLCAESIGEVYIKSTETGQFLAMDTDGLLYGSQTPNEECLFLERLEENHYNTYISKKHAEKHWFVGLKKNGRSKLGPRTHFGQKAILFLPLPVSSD
UniProt P21803: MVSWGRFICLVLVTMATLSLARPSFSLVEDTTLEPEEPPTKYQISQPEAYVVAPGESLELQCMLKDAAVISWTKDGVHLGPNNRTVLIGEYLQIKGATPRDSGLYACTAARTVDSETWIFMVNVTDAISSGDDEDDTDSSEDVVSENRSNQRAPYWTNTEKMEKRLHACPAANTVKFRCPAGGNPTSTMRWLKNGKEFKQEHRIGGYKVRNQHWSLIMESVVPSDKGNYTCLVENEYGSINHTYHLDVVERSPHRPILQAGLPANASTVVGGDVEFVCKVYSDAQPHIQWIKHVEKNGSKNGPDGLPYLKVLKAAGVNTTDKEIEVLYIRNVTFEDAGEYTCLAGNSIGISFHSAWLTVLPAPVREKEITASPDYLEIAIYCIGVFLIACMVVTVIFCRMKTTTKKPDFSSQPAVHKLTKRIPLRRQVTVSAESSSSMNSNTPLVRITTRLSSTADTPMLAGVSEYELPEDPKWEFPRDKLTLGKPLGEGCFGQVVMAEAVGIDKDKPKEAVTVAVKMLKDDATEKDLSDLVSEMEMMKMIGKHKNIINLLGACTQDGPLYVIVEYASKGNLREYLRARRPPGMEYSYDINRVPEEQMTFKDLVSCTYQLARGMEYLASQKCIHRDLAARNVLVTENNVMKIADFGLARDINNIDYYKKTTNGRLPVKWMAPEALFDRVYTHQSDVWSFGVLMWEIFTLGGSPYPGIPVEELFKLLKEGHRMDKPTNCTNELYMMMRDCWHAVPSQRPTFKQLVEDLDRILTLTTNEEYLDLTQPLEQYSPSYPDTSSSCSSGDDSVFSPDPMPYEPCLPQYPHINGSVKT

Biological target: bovine brain aFGF (bovine) (UniProt P03968)
Experiment: summary of the in vitro binding assay

binding: binds
Substance: D2-HFc fusion protein (from UniProt P21803 22-156; P01868 98-324)
